Assay results from patent US20260199447A1 (US Dept. of Health and Human Services, published 2026).
No constants are given. Whether binding was seen depends on the method and setting. Binding can be weak; no strength is given.

How the values were obtained:
Test in all cases: flow cytometry on live infected cells
[1] = target: RRV (live cells infected with RRV) (Ross River virus (RRV))
[2] = target: CHIKV (live cells infected with CHIKV) (chikungunya virus (CHIKV))
[3] = target: ONNV (live cells infected with ONNV) (o'nyong'nyong virus (ONNV))

Measured: binding

B1: SKT05 (antibody, V domains shown)
VH: EVQLVESGAGLVQPGGSLRLSCAASGFTFSDSWMSWVRQSPGKGLEWVGRIKGKPDGETAAYAASVKGRFSISRDDSKNTLYLQMNSLKTEDTAVYYCTRDDRTSCRRGVCYAAFHSWGQGVLVTVSS
VL: DIQMTQSPSSLSASAGDRVTLTCRASQAISFYLAWYQQKPGKAPKRLIYDASELQGGVPSRFSGSGSGTDFTLSINSLQPEDSATYFCLQYDSPPFTFGPGTKVEIKR
binds: all assays above

B2: SKT20 (antibody, V domains shown)
VH: QVQVQESGPGLVKPSETLSLTCAVSSGSINDDSYYWTWIRQSPGKGLEWLGFIHGGTGKSFYNPSLESRVTISKDTSRNQFSLTLSSVSAADTAVYYCARSHFCSNTFCYGWFDVWGPGIRVTVSS
VL: DVVMTQTPLSLPITPGEPASISCRSSQSLLHSNGNTYLHWYLQKPGQSPQLLIYGGSNRASGVPDRFSGSGSGTDFTLKISKVEAEDVGVYYCVQAIAFPWTFGQGTKVEIKR
binds: all assays above
